The list shows a part of the results. Most entries show no effect beyond the scatter of the controls.
Compound: Cc1nc(Nc2ncc(C(=O)Nc3c(C)cccc3Cl)s2)cc(N2CCN(CCO)CC2)n1 [dasatinib]
Assay: log2 fold change of tryptic peptide abundance, ligand vs vehicle (limited proteolysis) (log2 ratio); higher = more trypsin-susceptible (destabilized)
Conditions: ligand concentration: 5 uM; sample: K562 cleared lysate

Chains of the proteins cited; added tags and fusions are not shown. Lines headed by an entry give the natural chain unless they say otherwise; changes in a name come on top.
UniProt Q8TD55: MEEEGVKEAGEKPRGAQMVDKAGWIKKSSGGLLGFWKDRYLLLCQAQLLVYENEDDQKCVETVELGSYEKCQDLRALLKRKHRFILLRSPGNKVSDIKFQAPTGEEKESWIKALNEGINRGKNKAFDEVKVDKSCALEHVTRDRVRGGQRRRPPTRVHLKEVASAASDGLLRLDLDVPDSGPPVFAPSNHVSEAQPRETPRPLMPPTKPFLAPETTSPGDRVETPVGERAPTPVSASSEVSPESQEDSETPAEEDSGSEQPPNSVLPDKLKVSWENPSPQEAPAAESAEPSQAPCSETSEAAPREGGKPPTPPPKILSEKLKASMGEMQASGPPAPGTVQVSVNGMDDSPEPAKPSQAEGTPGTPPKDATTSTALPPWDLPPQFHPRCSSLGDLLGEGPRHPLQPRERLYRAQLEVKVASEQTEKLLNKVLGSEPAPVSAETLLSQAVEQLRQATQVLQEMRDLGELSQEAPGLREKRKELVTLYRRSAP
UniProt Q8WUX1, whole entry: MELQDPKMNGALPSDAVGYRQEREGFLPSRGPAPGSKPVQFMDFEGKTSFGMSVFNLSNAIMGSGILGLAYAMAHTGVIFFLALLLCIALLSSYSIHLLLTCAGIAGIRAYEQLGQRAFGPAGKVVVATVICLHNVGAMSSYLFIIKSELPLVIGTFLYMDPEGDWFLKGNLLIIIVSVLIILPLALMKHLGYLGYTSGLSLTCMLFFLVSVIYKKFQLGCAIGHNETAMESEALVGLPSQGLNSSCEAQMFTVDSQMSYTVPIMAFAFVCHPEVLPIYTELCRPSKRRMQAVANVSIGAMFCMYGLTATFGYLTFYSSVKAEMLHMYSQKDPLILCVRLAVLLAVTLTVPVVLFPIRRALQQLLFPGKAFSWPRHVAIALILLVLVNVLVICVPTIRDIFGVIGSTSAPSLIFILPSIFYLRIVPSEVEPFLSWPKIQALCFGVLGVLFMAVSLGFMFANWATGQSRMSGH
UniProt Q8WYA0: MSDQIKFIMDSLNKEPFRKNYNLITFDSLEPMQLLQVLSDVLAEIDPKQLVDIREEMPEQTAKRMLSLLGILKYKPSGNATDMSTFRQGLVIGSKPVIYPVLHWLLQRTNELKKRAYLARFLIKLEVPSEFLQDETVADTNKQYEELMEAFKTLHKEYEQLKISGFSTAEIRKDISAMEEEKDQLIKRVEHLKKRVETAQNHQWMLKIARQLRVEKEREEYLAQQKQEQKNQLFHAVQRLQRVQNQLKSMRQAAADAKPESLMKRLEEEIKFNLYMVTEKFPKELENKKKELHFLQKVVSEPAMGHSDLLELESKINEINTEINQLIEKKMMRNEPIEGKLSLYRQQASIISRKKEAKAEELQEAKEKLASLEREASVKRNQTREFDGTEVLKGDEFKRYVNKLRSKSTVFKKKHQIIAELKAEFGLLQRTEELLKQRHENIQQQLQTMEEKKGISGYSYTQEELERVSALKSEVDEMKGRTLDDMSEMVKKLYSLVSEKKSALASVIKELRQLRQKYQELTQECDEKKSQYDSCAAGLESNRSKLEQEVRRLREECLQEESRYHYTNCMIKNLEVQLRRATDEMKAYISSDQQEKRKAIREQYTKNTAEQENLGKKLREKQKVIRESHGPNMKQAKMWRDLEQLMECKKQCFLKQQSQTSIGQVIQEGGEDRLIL
UniProt Q8WW01: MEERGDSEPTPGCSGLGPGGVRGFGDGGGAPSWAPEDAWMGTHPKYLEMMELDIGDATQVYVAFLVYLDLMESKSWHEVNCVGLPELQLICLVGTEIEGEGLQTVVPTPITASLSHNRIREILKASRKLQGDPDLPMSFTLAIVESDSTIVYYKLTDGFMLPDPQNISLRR
UniProt Q8TDZ2: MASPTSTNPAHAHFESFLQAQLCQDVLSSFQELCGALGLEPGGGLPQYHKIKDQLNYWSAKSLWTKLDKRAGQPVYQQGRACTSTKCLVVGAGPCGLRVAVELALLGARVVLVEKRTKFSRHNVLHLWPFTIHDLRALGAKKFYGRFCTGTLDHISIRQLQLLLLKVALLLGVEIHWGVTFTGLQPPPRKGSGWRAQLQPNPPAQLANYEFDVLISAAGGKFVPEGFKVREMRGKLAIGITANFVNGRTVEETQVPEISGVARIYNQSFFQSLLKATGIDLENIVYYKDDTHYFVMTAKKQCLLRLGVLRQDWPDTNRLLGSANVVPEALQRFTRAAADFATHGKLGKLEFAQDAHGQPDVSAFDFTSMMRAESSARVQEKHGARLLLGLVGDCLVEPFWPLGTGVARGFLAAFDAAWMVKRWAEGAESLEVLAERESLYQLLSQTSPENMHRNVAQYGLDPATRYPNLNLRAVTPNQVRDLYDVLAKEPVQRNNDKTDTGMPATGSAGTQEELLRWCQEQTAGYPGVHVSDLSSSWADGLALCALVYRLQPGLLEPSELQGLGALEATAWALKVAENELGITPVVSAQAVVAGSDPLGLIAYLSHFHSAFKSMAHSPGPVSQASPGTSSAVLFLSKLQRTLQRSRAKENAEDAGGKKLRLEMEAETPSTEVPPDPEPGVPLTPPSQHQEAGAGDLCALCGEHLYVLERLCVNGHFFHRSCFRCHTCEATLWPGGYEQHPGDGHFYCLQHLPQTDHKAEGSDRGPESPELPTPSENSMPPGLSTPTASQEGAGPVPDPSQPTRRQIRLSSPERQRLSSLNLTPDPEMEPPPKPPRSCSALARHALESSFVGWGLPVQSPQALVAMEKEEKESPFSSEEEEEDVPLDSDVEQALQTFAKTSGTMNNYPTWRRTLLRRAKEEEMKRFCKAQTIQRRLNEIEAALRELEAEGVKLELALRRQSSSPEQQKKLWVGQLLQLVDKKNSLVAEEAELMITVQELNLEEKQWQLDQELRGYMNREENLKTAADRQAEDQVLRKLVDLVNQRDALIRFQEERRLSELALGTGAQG
UniProt Q8TDB8: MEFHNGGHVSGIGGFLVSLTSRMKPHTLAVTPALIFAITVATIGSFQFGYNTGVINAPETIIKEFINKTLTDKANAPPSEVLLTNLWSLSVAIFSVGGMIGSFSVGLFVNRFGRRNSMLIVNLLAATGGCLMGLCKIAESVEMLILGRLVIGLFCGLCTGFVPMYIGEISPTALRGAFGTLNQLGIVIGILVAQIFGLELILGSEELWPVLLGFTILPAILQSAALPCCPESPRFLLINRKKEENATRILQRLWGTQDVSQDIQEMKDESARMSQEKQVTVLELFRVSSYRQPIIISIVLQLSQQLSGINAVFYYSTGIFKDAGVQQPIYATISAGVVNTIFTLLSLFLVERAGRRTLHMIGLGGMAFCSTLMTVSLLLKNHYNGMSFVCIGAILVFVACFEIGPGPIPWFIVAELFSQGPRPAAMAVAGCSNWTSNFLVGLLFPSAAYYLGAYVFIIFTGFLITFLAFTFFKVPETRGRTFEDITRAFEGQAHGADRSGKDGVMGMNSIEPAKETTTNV
UniProt Q8WUA4: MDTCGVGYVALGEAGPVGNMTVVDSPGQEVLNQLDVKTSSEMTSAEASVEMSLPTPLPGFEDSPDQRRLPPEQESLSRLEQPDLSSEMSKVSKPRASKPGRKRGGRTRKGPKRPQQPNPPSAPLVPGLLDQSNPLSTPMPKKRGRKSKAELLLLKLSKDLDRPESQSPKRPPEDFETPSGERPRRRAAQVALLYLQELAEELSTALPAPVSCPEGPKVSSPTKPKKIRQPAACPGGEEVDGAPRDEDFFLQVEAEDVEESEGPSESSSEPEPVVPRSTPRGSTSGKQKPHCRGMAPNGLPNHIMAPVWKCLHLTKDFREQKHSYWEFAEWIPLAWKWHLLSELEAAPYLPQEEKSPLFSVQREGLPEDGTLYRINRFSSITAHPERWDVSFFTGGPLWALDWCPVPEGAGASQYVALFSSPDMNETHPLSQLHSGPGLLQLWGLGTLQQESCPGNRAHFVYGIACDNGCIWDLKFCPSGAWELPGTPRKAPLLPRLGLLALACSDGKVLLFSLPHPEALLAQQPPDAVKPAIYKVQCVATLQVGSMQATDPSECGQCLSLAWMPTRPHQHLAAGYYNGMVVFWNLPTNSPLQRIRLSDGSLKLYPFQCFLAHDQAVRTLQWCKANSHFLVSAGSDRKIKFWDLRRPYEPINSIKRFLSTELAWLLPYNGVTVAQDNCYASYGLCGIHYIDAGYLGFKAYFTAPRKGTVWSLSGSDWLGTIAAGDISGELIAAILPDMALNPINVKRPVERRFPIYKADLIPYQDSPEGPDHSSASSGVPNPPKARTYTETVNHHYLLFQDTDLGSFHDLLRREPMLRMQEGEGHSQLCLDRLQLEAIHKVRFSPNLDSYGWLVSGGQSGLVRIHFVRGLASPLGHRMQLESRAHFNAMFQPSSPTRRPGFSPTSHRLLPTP
UniProt Q92560: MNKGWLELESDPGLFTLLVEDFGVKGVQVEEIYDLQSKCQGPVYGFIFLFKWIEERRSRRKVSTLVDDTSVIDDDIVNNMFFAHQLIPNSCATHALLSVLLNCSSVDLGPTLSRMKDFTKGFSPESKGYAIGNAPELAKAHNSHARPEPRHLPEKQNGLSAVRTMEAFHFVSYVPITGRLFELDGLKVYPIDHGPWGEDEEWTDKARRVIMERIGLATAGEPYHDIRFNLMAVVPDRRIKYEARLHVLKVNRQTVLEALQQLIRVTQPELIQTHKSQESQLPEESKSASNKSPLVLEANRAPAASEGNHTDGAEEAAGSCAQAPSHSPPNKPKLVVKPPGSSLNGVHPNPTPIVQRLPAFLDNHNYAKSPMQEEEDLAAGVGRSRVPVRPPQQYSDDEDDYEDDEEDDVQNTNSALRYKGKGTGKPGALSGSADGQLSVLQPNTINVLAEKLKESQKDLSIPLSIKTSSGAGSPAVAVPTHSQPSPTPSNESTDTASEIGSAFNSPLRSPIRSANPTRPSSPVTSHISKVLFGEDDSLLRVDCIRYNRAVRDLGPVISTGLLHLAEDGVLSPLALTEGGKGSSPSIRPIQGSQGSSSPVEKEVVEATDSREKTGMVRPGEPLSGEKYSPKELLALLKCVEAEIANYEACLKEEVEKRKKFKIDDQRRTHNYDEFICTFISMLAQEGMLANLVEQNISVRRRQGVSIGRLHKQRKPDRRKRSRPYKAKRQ
UniProt Q92504: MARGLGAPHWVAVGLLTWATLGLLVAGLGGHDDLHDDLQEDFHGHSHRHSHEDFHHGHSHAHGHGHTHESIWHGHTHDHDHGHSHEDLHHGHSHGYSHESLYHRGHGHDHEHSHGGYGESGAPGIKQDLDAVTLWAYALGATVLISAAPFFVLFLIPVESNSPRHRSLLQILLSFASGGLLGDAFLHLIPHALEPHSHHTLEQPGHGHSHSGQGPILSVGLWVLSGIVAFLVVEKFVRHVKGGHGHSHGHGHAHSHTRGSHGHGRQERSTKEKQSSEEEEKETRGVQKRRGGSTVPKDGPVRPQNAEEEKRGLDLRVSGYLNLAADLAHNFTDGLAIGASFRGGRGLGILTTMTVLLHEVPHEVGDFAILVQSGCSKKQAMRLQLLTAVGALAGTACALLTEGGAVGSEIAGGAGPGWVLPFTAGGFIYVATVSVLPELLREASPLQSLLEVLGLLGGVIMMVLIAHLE
UniProt Q8WV93: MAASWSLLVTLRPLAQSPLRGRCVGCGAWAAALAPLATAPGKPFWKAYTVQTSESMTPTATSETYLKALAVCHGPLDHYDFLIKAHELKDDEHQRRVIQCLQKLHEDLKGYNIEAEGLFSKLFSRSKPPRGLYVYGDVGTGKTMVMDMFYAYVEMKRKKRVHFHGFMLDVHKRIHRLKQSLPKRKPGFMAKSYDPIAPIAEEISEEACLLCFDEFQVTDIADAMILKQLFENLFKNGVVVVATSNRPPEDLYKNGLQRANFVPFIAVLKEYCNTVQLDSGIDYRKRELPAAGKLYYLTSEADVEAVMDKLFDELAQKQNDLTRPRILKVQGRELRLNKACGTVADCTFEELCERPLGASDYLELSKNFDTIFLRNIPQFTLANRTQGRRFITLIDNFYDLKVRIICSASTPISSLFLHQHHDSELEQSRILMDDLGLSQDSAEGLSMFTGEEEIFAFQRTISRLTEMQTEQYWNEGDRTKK
UniProt Q8TDQ7: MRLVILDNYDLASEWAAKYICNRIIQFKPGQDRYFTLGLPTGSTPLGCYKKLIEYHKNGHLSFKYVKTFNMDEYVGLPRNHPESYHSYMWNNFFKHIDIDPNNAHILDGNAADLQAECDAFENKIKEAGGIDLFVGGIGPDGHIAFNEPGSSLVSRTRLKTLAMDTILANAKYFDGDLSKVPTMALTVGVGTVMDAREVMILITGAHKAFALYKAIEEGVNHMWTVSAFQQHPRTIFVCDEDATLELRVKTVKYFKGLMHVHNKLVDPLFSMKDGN

Target | log2 fold change
PLEKHO2 (peptide sequence: AFDEVKVDK, peptide start residue: 125) (UniProt Q8TD55) | -0.606
SLC38A5 (peptide sequence: MNGALPSDAVGYRQER, peptide start residue: 8) (UniProt Q8WUX1) | -0.0573
IFT81 (peptide sequence: AEELQEAK, peptide start residue: 359) (UniProt Q8WYA0) | 0.328
TSEN15 (peptide sequence: LTDGFMLPDPQNISLRR, peptide start residue: 155) (UniProt Q8WW01) | 0.0164
MICAL1 (peptide sequence: RQSSSPEQQKK, peptide start residue: 958) (UniProt Q8TDZ2) | -0.589
UniProt Q8TDB8 (peptide sequence: TFEDITR, peptide start residue: 457) | -0.0853
GTF3C2 (peptide sequence: DLDRPESQSPK, peptide start residue: 159) (UniProt Q8WUA4) | 0.442
BAP1 (peptide sequence: FKIDDQR, peptide start residue: 660) (UniProt Q92560) | 0.399
SLC39A7 (peptide sequence: DGPVRPQNAEEEKR, peptide start residue: 298) (UniProt Q92504) | 0.37
UniProt Q8WV93 (peptide sequence: ALAVCHGPLDHYDFLIK, peptide start residue: 68) | 0.582
GNPDA2 (peptide sequence: LVDPLFSMK, peptide start residue: 265) (UniProt Q8TDQ7) | 0.123

Reference: the supplement of paper PMC12819154, “High-throughput peptide-centric local stability assay extends protein–ligand identification to membrane proteins, tissues and bacteria” (Nature Structural & Molecular Biology, 2025)
